Record: PubChem BioAssay AID1259254 (NCATS, 2017)

Assay: 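Gene knock-downs that lead to re-replication, shown by excess G2 DNA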 (primary screen)
Cell system: human HCT116 colorectal cancer cells
Knock-down reagent: single siRNA against human genes
Timing: 3 days
Measured: 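Imaged Hoechst DNA stain sorts each cell into a cycle phase by DNA amount; per plate, G2 fraction set to 0% for non-targeting and 100% for GMNN siRNA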
Reading the numbers: G2 robust z-score: higher = more G2 cells, more excess DNA replication
Hit rule: 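An siRNA counts as active if its G2 robust z-score lies at least 5 MADs above the screen median; here such calls match roughly 38% of GMNN control or more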
Here is an unselected part of about 59,000 deposited reagents. In the full data, about 1,550 (2.6%) are marked active. 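G2 share is only a proxy for re-replication; each gene was hit by three separate siRNAs, and active genes were retested.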 The numbers tell different reagents against one gene apart. Not all columns of the deposit are shown. Not given: the amount of reagent.

gene symbol,siRNA no.,G2 robust z-score,activity call
KLHL10 (GeneID 317719),1,3.95,inactive
KLHL10 (GeneID 317719),2,0.201,inactive
KLHL10 (GeneID 317719),3,-0.34,inactive
SIGIRR (GeneID 59307),1,-0.926,inactive
SIGIRR (GeneID 59307),2,-0.342,inactive
SIGIRR (GeneID 59307),3,-0.732,inactive
KCNJ13 (GeneID 3769),1,0.702,inactive
KCNJ13 (GeneID 3769),2,-0.322,inactive
KCNJ13 (GeneID 3769),3,1.54,inactive
ATP6V1C1 (GeneID 528),1,-0.619,inactive
ATP6V1C1 (GeneID 528),2,3.63,inactive
ATP6V1C1 (GeneID 528),3,1.42,inactive
RASSF3 (GeneID 283349),1,0.38,inactive
RASSF3 (GeneID 283349),2,-0.355,inactive
RASSF3 (GeneID 283349),3,-0.701,inactive
WBP4 (GeneID 11193),1,0.991,inactive
WBP4 (GeneID 11193),2,0.506,inactive
WBP4 (GeneID 11193),3,2.84,inactive
NRSN2 (GeneID 80023),1,0.161,inactive
NRSN2 (GeneID 80023),2,0.34,inactive
NRSN2 (GeneID 80023),3,-0.454,inactive
COL23A1 (GeneID 91522),1,1.4,inactive
COL23A1 (GeneID 91522),2,-0.478,inactive
COL23A1 (GeneID 91522),3,-0.365,inactive
CDS1 (GeneID 1040),1,-0.215,inactive
CDS1 (GeneID 1040),2,-0.605,inactive
CDS1 (GeneID 1040),3,7.68,active
TMEM69 (GeneID 51249),1,-0.652,inactive
TMEM69 (GeneID 51249),2,1.89,inactive
TMEM69 (GeneID 51249),3,0.906,inactive
FEZ1 (GeneID 9638),1,-0.553,inactive
FEZ1 (GeneID 9638),2,0.0238,inactive
FEZ1 (GeneID 9638),3,-0.646,inactive
SH2D1A (GeneID 4068),1,-0.467,inactive
SH2D1A (GeneID 4068),2,1.46,inactive
SH2D1A (GeneID 4068),3,-0.709,inactive
HLA-DRB1 (GeneID 3123),1,-0.496,inactive
HLA-DRB1 (GeneID 3123),2,2.93,inactive
HLA-DRB1 (GeneID 3123),3,-0.803,inactive
WBP2NL (GeneID 164684),1,-0.0692,inactive
WBP2NL (GeneID 164684),2,0.215,inactive
WBP2NL (GeneID 164684),3,-0.499,inactive
YAE1 (GeneID 57002),1,-0.666,inactive
YAE1 (GeneID 57002),2,2.36,inactive
YAE1 (GeneID 57002),3,0.196,inactive
RPS6KB1 (GeneID 6198),1,-1.12,inactive
RPS6KB1 (GeneID 6198),2,-1.39,inactive
RPS6KB1 (GeneID 6198),3,1.51,inactive

Records listed so far whose gene name starts with H or h (3):
gene symbol,siRNA no.,G2 robust z-score,activity call
HLA-DRB1 (GeneID 3123),1,-0.496,inactive
HLA-DRB1 (GeneID 3123),2,2.93,inactive
HLA-DRB1 (GeneID 3123),3,-0.803,inactive
